PubChem BioAssay AID1224830, NIAID, 2016
Shown is a random part of about 18,000 deposited reagents. About 2,900 of them (16%) were called active. 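Calls are made per well; low scores hint the gene aids the LPS response, high scores that it dampens it.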 A number with no mark means an inactive call. Repeated entries: four replicate wells of each siRNA pool.

Purpose: 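Host factors that control LPS-induced TNF expression in human macrophages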 (primary screen)
Cells: human THP-1 monocytic leukaemia cells, TNF dual-luciferase reporter clone, PMA-differentiated to macrophage-like cells
Reagents: siRNA pool against human genes, 50 nM
Duration: LPS for 4 h, given about 3 days after siRNA transfection
Treatment: bacterial LPS (TLR4 ligand), 10 ng/ml
Measured: 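TNF firefly reporter luminescence divided by renilla, normalised to the plate median, then turned into a robust z-score for each replicate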
Direction: TNF reporter robust z-score: higher = stronger TNF reporter response to LPS
Hit rule: 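Each well counts as active if its z-score is over 2.8 or under -1.5; controls are left without a call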

Target gene | TNF reporter robust z-score
OR2F2 (olfactory receptor family 2 subfamily F member 2) | 1.78
OR2F2 (olfactory receptor family 2 subfamily F member 2) | -0.24
OR2F2 (olfactory receptor family 2 subfamily F member 2) | 0.12
OR2F2 (olfactory receptor family 2 subfamily F member 2) | 0.17
HNRNPDL (heterogeneous nuclear ribonucleoprotein D like) | -0.11
HNRNPDL (heterogeneous nuclear ribonucleoprotein D like) | 0.63
HNRNPDL (heterogeneous nuclear ribonucleoprotein D like) | -0.24
HNRNPDL (heterogeneous nuclear ribonucleoprotein D like) | -0.7
CD200 (CD200 molecule) | 0.24
CD200 (CD200 molecule) | 3.16 (active)
CD200 (CD200 molecule) | 0.68
CD200 (CD200 molecule) | 1.52
GANC (glucosidase alpha, neutral C) | 0.56
GANC (glucosidase alpha, neutral C) | -0.04
GANC (glucosidase alpha, neutral C) | -1.26
GANC (glucosidase alpha, neutral C) | -0.02
B3GNT5 | 0.51
B3GNT5 | 1.35
B3GNT5 | 1.12
B3GNT5 | -0.01
WIPI2 (WD repeat domain, phosphoinositide interacting 2) | -1.59 (active)
WIPI2 (WD repeat domain, phosphoinositide interacting 2) | -1.44
WIPI2 (WD repeat domain, phosphoinositide interacting 2) | -1.46
WIPI2 (WD repeat domain, phosphoinositide interacting 2) | -1.3
PEDS1-UBE2V1 (PEDS1-UBE2V1 readthrough) | 0.84
PEDS1-UBE2V1 (PEDS1-UBE2V1 readthrough) | 3.12 (active)
PEDS1-UBE2V1 (PEDS1-UBE2V1 readthrough) | 2.42
PEDS1-UBE2V1 (PEDS1-UBE2V1 readthrough) | 0.78
UQCC4 (ubiquinol-cytochrome c reductase complex assembly factor 4) | -1.47
UQCC4 (ubiquinol-cytochrome c reductase complex assembly factor 4) | -1.1
UQCC4 (ubiquinol-cytochrome c reductase complex assembly factor 4) | -1.52 (active)
UQCC4 (ubiquinol-cytochrome c reductase complex assembly factor 4) | -0.5
STRIP1 (striatin interacting protein 1) | 0.23
STRIP1 (striatin interacting protein 1) | 1.33
STRIP1 (striatin interacting protein 1) | 0.3
STRIP1 (striatin interacting protein 1) | 2
CD5 (CD5 molecule) | -0.77
CD5 (CD5 molecule) | 0.06
CD5 (CD5 molecule) | 0.74
CD5 (CD5 molecule) | 1.71
ATP5MJ (ATP synthase membrane subunit j) | 6.69 (active)
ATP5MJ (ATP synthase membrane subunit j) | 1.45
ATP5MJ (ATP synthase membrane subunit j) | 1.24
ATP5MJ (ATP synthase membrane subunit j) | 1.74
TRIM61 (tripartite motif containing 61) | -0.34
TRIM61 (tripartite motif containing 61) | -1.9 (active)
TRIM61 (tripartite motif containing 61) | -1.34
CPSF1 (cleavage and polyadenylation specific factor 1) | 0.28
CPSF1 (cleavage and polyadenylation specific factor 1) | 0.62
CPSF1 (cleavage and polyadenylation specific factor 1) | 0.41
CPSF1 (cleavage and polyadenylation specific factor 1) | 0.76
ANKRA2 (ankyrin repeat family A member 2) | -0.11
ANKRA2 (ankyrin repeat family A member 2) | 0.14
ANKRA2 (ankyrin repeat family A member 2) | -0.61
ANKRA2 (ankyrin repeat family A member 2) | -0.68
CLIC1 (CLIC family member 1) | -0.19
CLIC1 (CLIC family member 1) | -0.31
CLIC1 (CLIC family member 1) | -0.23
CLIC1 (CLIC family member 1) | -0.64
PLN (phospholamban) | -0.94
PLN (phospholamban) | -0.46
PLN (phospholamban) | -1.53 (active)
PLN (phospholamban) | -0.51
ZNF239 (zinc finger protein 239) | -0.84
ZNF239 (zinc finger protein 239) | -0.74
ZNF239 (zinc finger protein 239) | 0.65
ZNF239 (zinc finger protein 239) | 0.45
OR2M4 (olfactory receptor family 2 subfamily M member 4) | -0.94
OR2M4 (olfactory receptor family 2 subfamily M member 4) | -0.42
OR2M4 (olfactory receptor family 2 subfamily M member 4) | -0.85
OR2M4 (olfactory receptor family 2 subfamily M member 4) | -1.15
CENPC (centromere protein C) | 3.36 (active)
CENPC (centromere protein C) | -0.37
CENPC (centromere protein C) | 2.27
CENPC (centromere protein C) | 1.19
PLIN3 (perilipin 3) | -1.33
PLIN3 (perilipin 3) | -1.41
PLIN3 (perilipin 3) | -0.97
PLIN3 (perilipin 3) | -1.56 (active)
SNAP23 (synaptosome associated protein 23) | 2.6
SNAP23 (synaptosome associated protein 23) | 2.18
SNAP23 (synaptosome associated protein 23) | 2.54
SNAP23 (synaptosome associated protein 23) | -0.29
CCAR1 (cell division cycle and apoptosis regulator 1) | -1.08
CCAR1 (cell division cycle and apoptosis regulator 1) | -1.28
CCAR1 (cell division cycle and apoptosis regulator 1) | -1.51 (active)
CCAR1 (cell division cycle and apoptosis regulator 1) | 0.52
NDUFB10 (NADH:ubiquinone oxidoreductase subunit B10) | 0.31
NDUFB10 (NADH:ubiquinone oxidoreductase subunit B10) | 0.22
NDUFB10 (NADH:ubiquinone oxidoreductase subunit B10) | -0.02
NDUFB10 (NADH:ubiquinone oxidoreductase subunit B10) | -0.82

Continued; the last 20 above are carried over.
Target gene | TNF reporter robust z-score
CENPC (centromere protein C) | 3.36 (active)
CENPC (centromere protein C) | -0.37
CENPC (centromere protein C) | 2.27
CENPC (centromere protein C) | 1.19
PLIN3 (perilipin 3) | -1.33
PLIN3 (perilipin 3) | -1.41
PLIN3 (perilipin 3) | -0.97
PLIN3 (perilipin 3) | -1.56 (active)
SNAP23 (synaptosome associated protein 23) | 2.6
SNAP23 (synaptosome associated protein 23) | 2.18
SNAP23 (synaptosome associated protein 23) | 2.54
SNAP23 (synaptosome associated protein 23) | -0.29
CCAR1 (cell division cycle and apoptosis regulator 1) | -1.08
CCAR1 (cell division cycle and apoptosis regulator 1) | -1.28
CCAR1 (cell division cycle and apoptosis regulator 1) | -1.51 (active)
CCAR1 (cell division cycle and apoptosis regulator 1) | 0.52
NDUFB10 (NADH:ubiquinone oxidoreductase subunit B10) | 0.31
NDUFB10 (NADH:ubiquinone oxidoreductase subunit B10) | 0.22
NDUFB10 (NADH:ubiquinone oxidoreductase subunit B10) | -0.02
NDUFB10 (NADH:ubiquinone oxidoreductase subunit B10) | -0.82
THAP4 (THAP domain containing 4) | 0.2
THAP4 (THAP domain containing 4) | 1.14
THAP4 (THAP domain containing 4) | 0.95
THAP4 (THAP domain containing 4) | 0.02
RFC5 (replication factor C subunit 5) | 0.26
RFC5 (replication factor C subunit 5) | 1.17
RFC5 (replication factor C subunit 5) | 0.93
RFC5 (replication factor C subunit 5) | 1.84
FEZ1 (fasciculation and elongation protein zeta 1) | 3.07 (active)
FEZ1 (fasciculation and elongation protein zeta 1) | 4.21 (active)
FEZ1 (fasciculation and elongation protein zeta 1) | 4.52 (active)
FEZ1 (fasciculation and elongation protein zeta 1) | 0.47
UGT2A3 (UDP glucuronosyltransferase family 2 member A3) | -0.77
UGT2A3 (UDP glucuronosyltransferase family 2 member A3) | -0.2
UGT2A3 (UDP glucuronosyltransferase family 2 member A3) | -0.78
UGT2A3 (UDP glucuronosyltransferase family 2 member A3) | -0.8
MIEF1 (mitochondrial elongation factor 1) | 0.62
MIEF1 (mitochondrial elongation factor 1) | 0.81
MIEF1 (mitochondrial elongation factor 1) | 1.38
MIEF1 (mitochondrial elongation factor 1) | 1.61
FTO (FTO alpha-ketoglutarate dependent dioxygenase) | -1.08
FTO (FTO alpha-ketoglutarate dependent dioxygenase) | -0.25
FTO (FTO alpha-ketoglutarate dependent dioxygenase) | -0.79
FTO (FTO alpha-ketoglutarate dependent dioxygenase) | -0.24
GDA (guanine deaminase) | -1.18
GDA (guanine deaminase) | -1.11
GDA (guanine deaminase) | -0.47
GJA1 (gap junction protein alpha 1) | -1.09
GJA1 (gap junction protein alpha 1) | 1.22
GJA1 (gap junction protein alpha 1) | -0.32
GJA1 (gap junction protein alpha 1) | 1.66
MOSPD2 (motile sperm domain containing 2) | 0.64
MOSPD2 (motile sperm domain containing 2) | 1.65
MOSPD2 (motile sperm domain containing 2) | 1.56
NYAP1 | -0.25
NYAP1 | -0.26
NYAP1 | -0.41
NYAP1 | 0.74
PRPF39 (pre-mRNA processing factor 39) | -0.21
PRPF39 (pre-mRNA processing factor 39) | -0.05
PRPF39 (pre-mRNA processing factor 39) | -0.24
PRPF39 (pre-mRNA processing factor 39) | -0.19
PRM3 (protamine 3) | -0.72
PRM3 (protamine 3) | -0.94
PRM3 (protamine 3) | -1.34
PRM3 (protamine 3) | -0.69
HNRNPA1L2 (heterogeneous nuclear ribonucleoprotein A1 like 2) | -1.65 (active)
HNRNPA1L2 (heterogeneous nuclear ribonucleoprotein A1 like 2) | -1.75 (active)
HNRNPA1L2 (heterogeneous nuclear ribonucleoprotein A1 like 2) | -0.96
HNRNPA1L2 (heterogeneous nuclear ribonucleoprotein A1 like 2) | -0.67
